In paper PMC12509902, “PRMT1/PRMT5-Mediated Differential Arginine Methylation of CRIP1 Promotes the Recurrence of Small Cell Lung Cancer after Chemotherapy” (International Journal of Biological Sciences, 2025):

Molecular target: GST-p38
Test: pull-down; GST pull-down as described in ref. 23; GST-tagged protein expressed in BL21; Flag-tagged protein purified from HEK-293T by Flag affinity gel and 3× FLAG peptide elution; the paper calls the binding direct; both purified

B1: GST-CRIP1, full-length (FL), wild type (natural protein, UniProt P50238 1-77, looked up)
chain: MPKCPKCNKEVYFAERVTSLGKDWHRPCLKCEKCGKTLTSGGHAEHEGKPYCNHPCYAAMFGPKGFGRGGAESHTFK
notes: Cysteine-rich intestinal protein 1 (CRIP1), full length, in pGEX-6P-1; also called GST-CRIP1 WT; source: E. coli BL21, induced with 1 mM IPTG
- binding: binds

These are yes or no findings as the source states them, for the method shown. A result given as binding can be weak or reduced; the word gives no strength. Sequences can lack the tags named with a protein.
